# According to patent US9855260B2, “Quinolinone derivatives” (GlaxoSmithKline LLC, priority 2011, dated 2018):
# Some entries share one result that the patent states for a list of compounds.
# System: Human recombinant AMPK
# Assay: AMPK Enzymatic Assay (Z'Lyte FRET format)
# Assay type: biochemical
# Details: AMPK activation, ATP 100 μM, means of at least 2 independent experiments
Compound,average pEC200 (-Log(compound concentration leading to a 2-fold AMPK activity increase)),average pEC50
"O=c1[nH]c2cc(Cl)c(-c3ccc(-n4cccn4)cc3)cc2c(O)c1-c1ccccc1 [Example 47, 6-(4-(1H-Pyrazol-1-yl)phenyl)-7-chloro-4-hydroxy-3-phenylquinolin-2(1H)-one]",greater than or equal to 5.0,–
"CCn1ccc2cc(-c3cc4c(O)c(-n5cccn5)c(=O)[nH]c4cc3Cl)ccc21 [Example 142, 7-Chloro-6-(1-ethyl-1H-indol-5-yl)-4-hydroxy-3-(1H-pyrazol-1-yl)quinolin-2(1H)-one]",greater than or equal to 5.0,–
"Cc1cc(-c2c(O)c3cc(-c4ccc5ccn(C)c5c4)c(Cl)cc3[nH]c2=O)on1 [Example 156, 7-Chloro-4-hydroxy-6-(1-methyl-1H-indol-6-yl)-3-(3-methylisoxazol-5-yl)quinolin-2(1H)-one]",greater than or equal to 5.0,–
"Cc1cc(-c2c(O)c3cc(-c4ccc(C5CCCCC5)cc4)c(Cl)cc3[nH]c2=O)on1 [Example 115, 7-Chloro-6-(4-cyclohexylphenyl)-4-hydroxy-3-(3-methylisoxazol-5-yl)quinolin-2(1H)-one]",greater than or equal to 5.0,–
"O=c1[nH]c2cc(Cl)c(-c3ccc(N4CCCC4)cc3)cc2c(O)c1-c1ccccc1 [Example 57, 7-Chloro-4-hydroxy-3-phenyl-6-(4-(pyrrolidin-1-yl)phenyl)quinolin-2(1H)-one]",greater than or equal to 5.0,–
"Cc1ccnn1-c1c(O)c2cc(-c3ccc(N4CCCC4)cc3)c(Cl)cc2[nH]c1=O [Example 117, 7-Chloro-4-hydroxy-3-(5-methyl-1H-pyrazol-1-yl)-6-(4-(pyrrolidin-1-yl)phenyl)quinolin-2(1H)-one]",greater than or equal to 5.0,–
"Cc1nc(-c2c(O)c3cc(-c4ccc(N(C)C)cc4)c(Cl)cc3[nH]c2=O)c(C)s1 [7-chloro-6-(4-(dimethylamino)phenyl)-3-(2,5-dimethylthiazol-4-yl)-4-hydroxyquinolin-2(1H)-one]",less than 5.0,less than 5.5
Cc1cc(-c2c(O)c3cc(-c4ccc(N(C)C)cc4)c(Cl)cc3[nH]c2=O)no1 [7-chloro-6-(4-(dimethylamino)phenyl)-4-hydroxy-3-(5-methylisoxazol-3-yl)quinolin-2(1H)-one],less than 5.0,less than 5.5
"O=c1[nH]c2cc(Cl)c(-c3ccc(N4CCCC4)cc3)cc2c(O)c1-n1cncn1 [Example 135, 7-Chloro-4-hydroxy-6-(4-(pyrrolidin-1-yl)phenyl)-3-(1H-1,2,4-triazol-1-yl)quinolin-2(1H)-one]",greater than or equal to 5.0,–
"COc1cccc(-c2c(O)c3cc(-c4ccc(N5CCCC5)cc4)c(Cl)cc3[nH]c2=O)c1 [Example 34, 7-Chloro-4-hydroxy-3-(3-methoxyphenyl)-6-(4-(pyrrolidin-1-yl)phenyl)quinolin-2(1H)-one]",greater than or equal to 5.0,–
"CCOc1ccc(-c2cc3c(O)c(-n4cccn4)c(=O)[nH]c3cc2Cl)cc1 [Example 68, 7-Chloro-6-(4-ethoxyphenyl)-4-hydroxy-3-(1H-pyrazol-1-yl)quinolin-2(1H)-one]",greater than or equal to 5.0,–
"O=c1[nH]c2cc(Cl)c(-c3ccc(-c4ccccc4F)cc3)cc2c(O)c1-n1cccn1 [Example 178, 7-Chloro-6-(2′-fluoro-[1,1′-biphenyl]-4-yl)-4-hydroxy-3-(1H-pyrazol-1-yl)quinolin-2(1H)-one]",greater than or equal to 5.0,–
"CN1CCOc2cc(-c3cc4c(O)c(-n5cccn5)c(=O)[nH]c4cc3Cl)ccc21 [Example 77, 7-Chloro-4-hydroxy-6-(4-methyl-3,4-dihydro-2H-benzo[b][1,4]oxazin-7-yl)-3-(1H-pyrazol-1-yl) quinolin-2(1H)-one]",greater than or equal to 5.0,–
"Cc1cnn(-c2c(O)c3cc(-c4ccc5c(ccn5C)c4)c(Cl)cc3[nH]c2=O)c1 [Example 108, 7-Chloro-4-hydroxy-6-(1-methyl-1H-indol-5-yl)-3-(4-methyl-1H-pyrazol-1-yl)quinolin-2(1H)-one]",greater than or equal to 5.0,–
"COc1cccc(-c2c(O)c3cc(-c4cccc(N(C)C)c4)c(Cl)cc3[nH]c2=O)c1 [Example 40, 7-Chloro-6-[3-(dimethylamino)phenyl]-4-hydroxy-3-[3-(methyloxy)phenyl]-2(1H)-quinolinone]",greater than or equal to 5.0,–
"COc1cccc(-c2ccc(-c3cc4c(O)c(Oc5ccccc5)c(=O)[nH]c4cc3Cl)cc2)c1O [Example 58, 7-Chloro-4-hydroxy-6-(2′-hydroxy-3′-methoxy-[1,1′-biphenyl]-4-yl)-3-phenoxyquinolin-2(1H)-one]",greater than or equal to 5.0,–

Compound,average pEC200 (-Log(compound concentration leading to a 2-fold AMPK activity increase)),average pEC50
"COc1cccc(-c2c(O)c3cc(-c4ccc5c(c4)OCCN5C)c(Cl)cc3[nH]c2=O)c1 [Example 56, 7-Chloro-4-hydroxy-3-(3-methoxyphenyl)-6-(4-methyl-3,4-dihydro-2H-benzo[b][1,4]oxazin-7-yl)quinolin-2(1H)-one]",greater than or equal to 5.0,–
"O=c1[nH]c2cc(Cl)c(-c3ccc(C4(CO)CC4)cc3)cc2c(O)c1-n1cccn1 [Example 141, 7-Chloro-4-hydroxy-6-(4-(1-(hydroxymethyl)cyclopropyl)phenyl)-3-(1H-pyrazol-1-yl)quinolin-2(1H)-one]",greater than or equal to 5.0,–
"Cc1cc(-c2c(O)c3cc(-c4ccc5ccccc5c4)c(Cl)cc3[nH]c2=O)on1 [Example 118, 7-Chloro-4-hydroxy-3-(3-methylisoxazol-5-yl)-6-(naphthalen-2-yl)quinolin-2(1H)-one]",greater than or equal to 5.0,–
"Cn1ccc2cc(-c3cc4c(O)c(-c5ccncc5)c(=O)[nH]c4cc3Cl)ccc21 [Example 109, 7-Chloro-4-hydroxy-6-(1-methyl-1H-indol-5-yl)-3-(pyridin-4-yl)quinolin-2(1H)-one]",greater than or equal to 5.0,–
"COc1cccc(-c2c(O)c3cc(-c4ccc(N5CCCC(O)C5)cc4)c(Cl)cc3[nH]c2=O)c1 (stereo not drawn) [Example 54, 7-Chloro-4-hydroxy-6-(4-(3-hydroxypiperidin-1-yl)phenyl)-3-(3-methoxyphenyl)quinolin-2(1H)-one]",greater than or equal to 5.0,–
"Cn1ccc2cc(-c3cc4c(O)c(Oc5ccccc5)c(=O)[nH]c4cc3Cl)ccc21 [Example 110, 7-Chloro-4-hydroxy-6-(1-methyl-1H-indol-5-yl)-3-phenoxyquinolin-2(1H)-one]",greater than or equal to 5.0,–
"CN(C)c1ccc(-c2cc3c(O)c(Oc4ccccn4)c(=O)[nH]c3cc2Cl)cc1 [Example 85, 7-Chloro-6-(4-(dimethylamino)phenyl)-4-hydroxy-3-(pyridin-2-yloxy)quinolin-2(1H)-one]",greater than or equal to 5.0,–
"COc1cccc(-c2c(O)c3cc(-c4ccc(N5CCN(C)CC5)cc4)c(Cl)cc3[nH]c2=O)c1 [Example 38, 7-Chloro-4-hydroxy-3-(3-methoxyphenyl)-6-(4-(4-methylpiperazin-1-yl)phenyl)quinolin-2(1H)-one]",greater than or equal to 5.0,–
"Cl.Nc1nc(-c2ccc(-c3cc4c(O)c(-n5cccn5)c(=O)[nH]c4cc3Cl)cc2)cs1 [Example 187, 6-[4-(2-Amino-1,3-thiazol-4-yl)phenyl]-7-chloro-4-hydroxy-3-(1H-pyrazol-1-yl)-2(1H)-quinolinone hydrochloride]",greater than or equal to 5.0,–
"Cc1ccccc1-c1c(O)c2cc(-c3ccc(N(C)C)cc3)c(Cl)cc2[nH]c1=O [Example 150, 7-Chloro-6-(4-(dimethylamino)phenyl)-4-hydroxy-3-(o-tolyl)quinolin-2(1H)-one]",greater than or equal to 5.0,–
"CN(C)c1ccc(-c2cc3c(O)c(-c4cccc(C#N)c4)c(=O)[nH]c3cc2Cl)cc1 [Example 19, 3-(7-Chloro-6-(4-(dimethylamino)phenyl)-4-hydroxy-2-oxo-1,2-dihydroquinolin-3-yl)benzonitrile]",greater than or equal to 5.0,–
"Cn1ncc2cc(-c3cc4c(O)c(-n5cccn5)c(=O)[nH]c4cc3Cl)ccc21 [Example 78, 7-Chloro-4-hydroxy-6-(1-methyl-1H-indazol-5-yl)-3-(1H-pyrazol-1-yl)quinolin-2(1H)-one]",greater than or equal to 5.0,–
"COc1cccc(-c2ccc(-c3cc4c(O)cc(=O)[nH]c4cc3Cl)cc2)c1O [Example 59, 7-Chloro-4-hydroxy-6-(2′-hydroxy-3′-methoxy-[1,1′-biphenyl]-4-yl)quinolin-2(1H)-one]",greater than or equal to 5.0,–
"O=c1[nH]c2cc(Cl)c(-c3ccc(N4CCCC4)cc3)cc2c(O)c1-c1cccc(Cl)c1 [Example 167, 7-Chloro-3-(3-chlorophenyl)-4-hydroxy-6-(4-(pyrrolidin-1-yl)phenyl)quinolin-2(1H)-one]",greater than or equal to 5.0,–
"O=c1[nH]c2cc(Cl)c(-c3ccc(N4CCOCC4)cc3)cc2c(O)c1Oc1ccccc1 [Example 45, 7-Chloro-4-hydroxy-6-(4-morpholinophenyl)-3-phenoxyquinolin-2(1H)-one]",greater than or equal to 5.0,–
